In patent US12630523B2, “Isoquinoline derivatives for use as antiviral and antitumour agents” (priority 2021, dated 2026):
At least one compound was matched to its structure with a doubt left.

Test system: HPV16 E7 protein
Assay: Western blot of E7 steady state level in CaSki cells
Type: cell-based
Settings: 4 hours; 100 nM Rapamycin
Experimental: B) For cells in cell culture the following procedure for the preparation of a total cell extract is used. Freshly seeded cells are grown for 24 hours to obtain 65-75% confluency (corresponds for CaSki cells to a plating of approx. 2×10^6 cells/10 cm Ø cell culture dish). Cell culture dishes with medium are out on ice for 5 minutes.
Lysed cells are scraped off the dish and transfers to microcentrifuge tubes, followed by 2×10 sec sonication to complete cell lysis at room temperature. The samples are heated at 96° C. for 10 min and centrifuged for 5 min at 12000 g at room temperature.
Endogenous E7 proteins are rigid, tightly folded molecules and are bound only transiently onto […] membranes during protein blotting procedures, in particular employing semidry methods. Thus, for protein blotting a buffer system containing 40% (v/v) of Methanol is used. These buffers tend to be unstable and therefore freshly prepared solutions need to be used. E7 antibodies are used in TBET at pH7.8. Under these conditions western blot transfer is not complete for most other proteins. If staining of different proteins of the same gel is done, the gel is divided prior to blotting, 40% Methanol is used in the transfer buffer for E7 and a transfer buffer containing 20% Methanol is used for most of the other markers. […]

CO[C@H]1C[C@@H]2CC[C@@H](C)[C@@](O)(O2)C(=O)C(=O)N2CCCC[C@H]2C(=O)O[C@H]([C@H](C)C[C@@H]2CC[C@@H](O)[C@H](OC)C2)CC(=O)[C@H](C)/C=C(\C)[C@@H](O)[C@@H](OC)C(=O)[C@H](C)C[C@H](C)/C=C/C=C/C=C/1C [Rapamycin, reference compound]
E7 proteins in CaSki cells (Test 5): degradation of E7 proteins
